Reference: article PMC6251626
These are yes or no findings as the source states them, for the method shown.

Biological target: wt-Alp14-monomer (S. pombe Alp14 residues 1-510) (S. pombe) (UniProt O94534)
Assay: SEC-MALS; isolated proteins alone, 200 mM KCl; both purified

B1: wt-Alp14-monomer (S. pombe Alp14 residues 1-510) (domain or fragment, UniProt O94534 1-510)
chain: MSQDQEEDYSKLPLESRIVHKVWKVRLSAYEECSKSFSLSADGSDNCFELWNNQSELWKSVLTDSNVAAQEAGTAAFVAYCRFSDPSHLLKAREISVLSISEKCLTSPRAGTRENALEALMLLVEADSAAPVIESIIPSLSARSPKVIASNVAAIASLVEQFGAKVIPSKMIIPHISNLFGHADKNVRKEASRLTVNIYRWTGDPLKDLLFKDLRPVQTKELESLFAELPTEPPKQTRFLKSQQPTSEPNVETQVEEQPALENEESEPEPSDDQFDLVEEVDVLPNVDPNLETLMASSKWKDRKEALDKLLPVLSQPKIKDNDFFNLVAILTKSVSKDANIMVVINAAHCIQAMAKGLRSNFSKYASTSINALLERSKEKKANVIESLSSAMDAVLATSSLDDLAELIASFAGNKNPQIKSSCFSLFSRSFSNMTSLPSKFTVDTCAKACVPGVSDTFEPVRSAAAEALGVLMKLVGERAINQYLSPLDDIRKSKIRSFYETATVKAKAP
With B1 the binding was “no binding”.
